Test results: the supplement of paper PMC4604168 (melanoma cell lines)
The other results are listed elsewhere or left out. Repeats are few or missing, and single values can be far off.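 Cells were imaged in 1,536-well plates, and nuclei stained with an antibody against cleaved PARP were counted against all DNA-stained nuclei to give the apoptosis fraction. Screening doses were chosen to leave most cells alive, and resting and induced cleaved-PARP levels differ strongly between cell lines.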

Key:
Assay in all cases: cleaved PARP positive nuclei fraction relative to DMSO control; melanoma cells; higher = more apoptosis
Details in all cases: library dose: low library concentration; 72 h
MZ2-MEL = test system: MZ2-MEL
MeWo = test system: MeWo
RPMI7951 = test system: RPMI7951
RVH-421 = test system: RVH-421
SkMel28 = test system: SkMel28
SkMel2 = test system: SkMel2
SkMel30 = test system: SkMel30
UACC62 = test system: UACC62

Row | SMILES | cleaved PARP positive nuclei fraction (MZ2-MEL) [%] | cleaved PARP positive nuclei fraction (MeWo) [%] | cleaved PARP positive nuclei fraction (RPMI7951) [%] | cleaved PARP positive nuclei fraction (RVH-421) [%] | cleaved PARP positive nuclei fraction (SkMel28) [%] | cleaved PARP positive nuclei fraction (SkMel2) [%] | cleaved PARP positive nuclei fraction (SkMel30) [%] | cleaved PARP positive nuclei fraction (UACC62) [%]
1 | CC(=O)O[C@@]12CO[C@@H]1C[C@H](O)[C@@]1(C)C(=O)[C@H](O)C3=C(C)[C@@H](OC(=O)[C@H](O)[C@@H](NC(=O)OC(C)(C)C)c4ccccc4)C[C@@](O)([C@@H](OC(=O)c4ccccc4)[C@H]21)C3(C)C [Docetaxel] + OCc1c[nH]c2ccccc12 [Indole-3-carbinol] (first compound 0.0001 µM, partner dose 0.8 µM) | 345 | 817 | 288 | 162 | 240 | 668 | 250 | 600
2 | CCN(CC)CCNC(=O)c1c(C)[nH]c(/C=C2\C(=O)Nc3ccc(F)cc32)c1C [sunitinib] + C=C(c1ccc(C(=O)O)cc1)c1cc2c(cc1C)C(C)(C)CCC2(C)C [Bexarotene] (first compound 0.4 µM, partner dose 2 µM) | 47.1 | 177 | 44.7 | 39.7 | 76.8 | 68.3 | 43.6 | 229
3 | CCN(CC)CCNC(=O)c1c(C)[nH]c(/C=C2\C(=O)Nc3ccc(F)cc32)c1C [sunitinib] + Cn1c(Nc2ccc(C(F)(F)F)cc2)nc2cc(Oc3ccnc(-c4ncc(C(F)(F)F)[nH]4)c3)ccc21 [CHIR265] (first compound 0.4 µM, partner dose 0.08 µM) | 72.7 | 249 | 96.9 | 196 | 394 | 43.6 | 119 | 303
4 | C[C@]1(O)C[C@@H](c2nc(-c3ccc4ccc(-c5ccccc5)nc4c3)c3c(N)nccn32)C1 + Cn1c(=O)n(-c2ccc(C(C)(C)C#N)cc2)c2c3cc(-c4cnc5ccccc5c4)ccc3ncc21 [NVP-BEZ235] (first compound 0.4 µM, partner dose 0.004 µM) | 69.2 | 159 | 76.6 | 46.3 | 107 | 135 | 123 | 108
5 | CC1(C)CCC(c2ccc(Cl)cc2)=C(CN2CCN(c3ccc(C(=O)NS(=O)(=O)c4ccc(N[C@H](CCN5CCOCC5)CSc5ccccc5)c(S(=O)(=O)C(F)(F)F)c4)cc3)CC2)C1 + CS(=O)(=O)c1ccc(C(=O)Nc2ccc(Cl)c(-c3ccccn3)c2)c(Cl)c1 [vismodegib] (first compound 0.4 µM, partner dose 1 µM) | 125 | 467 | 229 | 164 | 31.6 | 122 | 51.6 | 111
6 | CS(=O)(=O)c1ccc(C(=O)Nc2ccc(Cl)c(-c3ccccn3)c2)c(Cl)c1 [vismodegib] + Nc1ccn([C@@H]2O[C@H](CO)[C@@H](O)C2(F)F)c(=O)n1 [gemcitabine] (first compound 1 µM, partner dose 0.0004 µM) | 53.3 | 119 | 68.8 | 20 | 136 | 84.8 | 91.5 | 64.5
7 | C[C@]1(O)C[C@@H](c2nc(-c3ccc4ccc(-c5ccccc5)nc4c3)c3c(N)nccn32)C1 + CC(C)C[C@H](NC(=O)[C@H](Cc1ccccc1)NC(=O)c1cnccn1)B(O)O [Bortezomib] (first compound 0.4 µM, partner dose 0.001 µM) | 113 | 59.1 | 138 | 38.1 | 43.5 | 37.4 | 27.4 | 22.3
8 | CC(=O)O[C@@]12CO[C@@H]1C[C@H](O)[C@@]1(C)C(=O)[C@H](O)C3=C(C)[C@@H](OC(=O)[C@H](O)[C@@H](NC(=O)OC(C)(C)C)c4ccccc4)C[C@@](O)([C@@H](OC(=O)c4ccccc4)[C@H]21)C3(C)C [Docetaxel] + CC(=O)c1c(C)c2cnc(Nc3ccc(N4CCNCC4)cn3)nc2n(C2CCCC2)c1=O [palbociclib] (first compound 0.0001 µM, partner dose 0.04 µM) | 463 | 421 | 126 | 382 | 196 | 311 | 211 | 465
9 | Cn1cnc2c(F)c(Nc3ccc(Br)cc3Cl)c(C(=O)NOCCO)cc21 [selumetinib] + CS(=O)(=O)c1ccc(C(=O)Nc2ccc(Cl)c(-c3ccccn3)c2)c(Cl)c1 [vismodegib] (first compound 0.015 µM, partner dose 1 µM) | 137 | 77 | 164 | 183 | 144 | 195 | 306 | 183
10 | CC1(C)CCC(c2ccc(Cl)cc2)=C(CN2CCN(c3ccc(C(=O)NS(=O)(=O)c4ccc(N[C@H](CCN5CCOCC5)CSc5ccccc5)c(S(=O)(=O)C(F)(F)F)c4)cc3)CC2)C1 + C=C(c1ccc(C(=O)O)cc1)c1cc2c(cc1C)C(C)(C)CCC2(C)C [Bexarotene] (first compound 0.4 µM, partner dose 2 µM) | 338 | 746 | 168 | 112 | 192 | 202 | 112 | 144
11 | CCN(CC)CCNC(=O)c1c(C)[nH]c(/C=C2\C(=O)Nc3ccc(F)cc32)c1C [sunitinib] + COc1ccc(Cl)c(Nc2nc3ccccc3nc2NS(=O)(=O)c2cccc(NC(=O)C(C)(C)N)c2)c1 [XL147] (first compound 0.4 µM, partner dose 0.8 µM) | 56 | 151 | 94.8 | 155 | 84.6 | 25.3 | 108 | 187
